These are yes or no findings as the source states them, for the method shown. In cells and extracts the contact can be indirect. Some entries that bind do so weakly or less than the wild type. Tags and fused reporters may be left off the sequences shown.
Legend:
Experiment in all cases: co-IP; 293T cells co-expressing an HA-tagged and a 3xFlag-tagged protein; Nonidet P-40 lysis buffer (50 mM Tris-Cl pH 8.0, 100 mM NaCl, 1% NP-40); Flag antibody-conjugated beads 2 h at 4 °C, eluted with 3xFlag peptides; immunoblot
[1] = target: T1, 3xFlag-tagged human IRGM_v1 (longer isoform) expressed in 293T cells (human) (UniProt A1A4Y4)
T1 sequence: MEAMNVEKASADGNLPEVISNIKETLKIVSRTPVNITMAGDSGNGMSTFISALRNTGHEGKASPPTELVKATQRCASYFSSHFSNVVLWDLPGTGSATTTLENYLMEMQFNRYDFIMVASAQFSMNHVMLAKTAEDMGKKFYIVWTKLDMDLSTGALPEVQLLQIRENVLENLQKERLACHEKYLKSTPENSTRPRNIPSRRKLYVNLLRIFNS

[2] = target: T2, 3xFlag-tagged human IRGM_v2 (shorter isoform) expressed in 293T cells (human) (UniProt A1A4Y4)
T2 sequence: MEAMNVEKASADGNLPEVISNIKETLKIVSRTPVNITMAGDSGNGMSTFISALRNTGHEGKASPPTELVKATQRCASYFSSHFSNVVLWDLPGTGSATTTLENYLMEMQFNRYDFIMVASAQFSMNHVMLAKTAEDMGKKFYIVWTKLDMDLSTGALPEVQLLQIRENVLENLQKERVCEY

[3] = target: T3, 3xFlag-tagged human IRGC (immunity related GTPase cinema) expressed in 293T cells (human) (UniProt Q6NXR0)
T3 sequence: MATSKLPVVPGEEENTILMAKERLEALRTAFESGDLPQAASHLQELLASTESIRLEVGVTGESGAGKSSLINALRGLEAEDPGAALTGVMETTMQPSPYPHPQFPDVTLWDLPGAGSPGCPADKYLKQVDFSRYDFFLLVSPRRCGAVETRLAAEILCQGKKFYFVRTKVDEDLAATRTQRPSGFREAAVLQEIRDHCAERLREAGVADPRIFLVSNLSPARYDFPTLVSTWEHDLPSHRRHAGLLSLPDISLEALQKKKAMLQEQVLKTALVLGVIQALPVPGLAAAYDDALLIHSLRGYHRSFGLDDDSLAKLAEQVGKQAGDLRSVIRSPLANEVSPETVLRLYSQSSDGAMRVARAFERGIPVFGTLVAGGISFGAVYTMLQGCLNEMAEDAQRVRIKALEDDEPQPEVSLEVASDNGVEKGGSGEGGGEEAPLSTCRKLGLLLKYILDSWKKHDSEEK

binding [1]: no binding | binding [2]: no binding | binding [3]: binds
B1: HA-tagged human HSD17B13 expressed in 293T cells (protein, UniProt Q7Z5P4 20-300)
chain: ESLVKFFIPQRRKSVAGEIVLITGAGHGIGRQTTYEFAKRQSILVLWDINKRGVEETAAECRKLGVTAHAYVVDCSNREEIYRSLNQVKKEVGDVTIVVNNAGTVYPADLLSTKDEEITKTFEVNILGHFWITKALLPSMMERNHGHIVTVASVCGHEGIPYLIPYCSSKFAAVGFHRGLTSELQALGKTGIKTSCLCPVFVNTGFTKNPSTRLWPVLETDEVVRSLIDGILTNKKMIFVPSYINIFLRLQKFLPERASAILNRMQNIQFEAVVGHKIKMK

Source: publication PMC9288484
